Laboratory results as given in PubChem BioAssay AID248 (DTP/NCI, 2004).
The list shows only some results of the screen, not a fair sample: it is rich in T/C values a quarter to a half above the control, in often repeated tests (any T/C) and in doses without a T/C. Other doses and runs of a compound stand elsewhere. T/C is the treated group as % of the vehicle group. Some entries give survivors of the animals treated and no T/C: the source holds a T/C of zero for them, seemingly a mark for toxic or unscored doses. Some doses without a T/C left all or most animals alive at the check, yet need not have been tolerated: the source hardly ever lists a survival T/C far under the control, and the zero likely stands for such cases as well. Counts of survivors are from the toxicity check (mostly the fifth day) where no day follows; animals may have died later. Schedules are NCI's codes, read here as Q, the interval in days (D) or hours (H), X, the number of doses. Some entries were tested several times; the values are given in rising order. Some schedule codes hold Z or #, which are not explained here. For survival time, the PubChem record calls one and a half times the control and up active, and a quarter to a half above the control has no call in these data; cut-offs in other NCI protocols can differ.

System: L1210 leukemia ip in BDF1 mice, survival T/C
Assay: NCI In Vivo Anticancer Drug Screen. Data for tumor model L1210 Leukemia (intraperitoneal) in B6D2F1 (BDF1) mice
Settings: T/C endpoint: mean survival time, higher T/C = longer survival
[1] = dose: 100.0 mg/kg/injection, schedule: Q01DX001 (ip), vehicle: carboxymethylcellulose (CMC)
[2] = dose: 200.0 mg/kg/injection, schedule: Q01DX001 (ip), vehicle: carboxymethylcellulose (CMC)
[3] = dose: 400.0 mg/kg/injection, schedule: Q01DX001 (ip), vehicle: carboxymethylcellulose (CMC)
[4] = dose: 400.0 mg/kg/injection, schedule: Q04DX003 (ip), vehicle: Klucel (hydroxypropylcellulose) (HPC)
[5] = dose: 400.0 mg/kg/injection, schedule: Q01DX009 (ip), vehicle: saline with Tween-80
[6] = dose: 400.0 mg/kg/injection, schedule: Q01DX009 (ip), vehicle: Klucel (hydroxypropylcellulose) (HPC)
[7] = dose: 400.0 mg/kg/injection, schedule: Q01DX001 (ip), vehicle: saline
[8] = dose: 200.0 mg/kg/injection, schedule: Q01DX001 (ip), vehicle: saline
[9] = dose: 200.0 mg/kg/injection, schedule: Q01DX009 (ip), vehicle: saline with Tween-80
[10] = dose: 200.0 mg/kg/injection, schedule: Q01DX009 (ip), vehicle: Klucel (hydroxypropylcellulose) (HPC)

## CCCCN(C)/N=N/c1nc[nH]c1C(N)=O
dose: 12.0 mg/kg/injection, schedule: Q01DX009 (ip), vehicle: other
  T/C: 127 % of control
dose: 21.0 mg/kg/injection, schedule: Q01DX009 (ip), vehicle: other
  T/C: 132 % of control
dose: 24.5 mg/kg/injection, schedule: Q01DX009 (ip), vehicle: saline with Tween-80
  T/C: 128 % of control
dose: 40.0 mg/kg/injection, schedule: Q01DX009 (ip), vehicle: carboxymethylcellulose (CMC)
  T/C: 128 % of control
dose: 60.0 mg/kg/injection, schedule: Q01DX009 (ip), vehicle: carboxymethylcellulose (CMC)
  T/C: 135 % of control
dose: 80.0 mg/kg/injection, schedule: Q01DX009 (ip), vehicle: carboxymethylcellulose (CMC)
  T/C: 146 % of control
dose: 133.0 mg/kg/injection, schedule: Q01DX001 (ip), vehicle: other
  T/C: 129 % of control
dose: 200.0 mg/kg/injection, schedule: Q01DX001 (ip), vehicle: other
  T/C: 140 and 141 % of control
dose: 212.0 mg/kg/injection, schedule: Q01DX001 (ip), vehicle: saline with Tween-80
  T/C: 130 % of control
dose: 300.0 mg/kg/injection, schedule: Q01DX001 (ip), vehicle: carboxymethylcellulose (CMC)
  T/C: 131 % of control
dose: 300.0 mg/kg/injection, schedule: Q01DX001 (ip), vehicle: other
  T/C: 126 % of control

## CCCCCC(O)C1C(=O)OC(C)C(O)/C=C/C=C/C=C/C=C/C=C(\C)C(O)C(O)C(O)CC(O)CC(O)CC(O)CC(O)CC1O (configuration not stated)
dose: 5.0 mg/kg/injection, schedule: Q01DX001 (ip), vehicle: carboxymethylcellulose (CMC)
  survivor count: 0 of 4
dose: 10.0 mg/kg/injection, schedule: Q01DX001 (ip), vehicle: carboxymethylcellulose (CMC)
  survivor count: 0 of 4
dose: 20.0 mg/kg/injection, schedule: Q01DX001 (ip), vehicle: carboxymethylcellulose (CMC)
  survivor count: 1 of 4
dose: 40.0 mg/kg/injection, schedule: Q01DX001 (ip), vehicle: carboxymethylcellulose (CMC)
  survivor count: 0 of 4
dose: 50.0 mg/kg/injection, schedule: Q01DX001 (ip), vehicle: carboxymethylcellulose (CMC)
  survivor count: 0 of 4
dose: 80.0 mg/kg/injection, schedule: Q01DX001 (ip), vehicle: carboxymethylcellulose (CMC)
  survivor count: 0 of 4
[1]
  survivor count: 0 of 4
[2]
  survivor count: 0 of 4
[3]
  survivor count: 0 of 4 and 1 of 4

## O=C(Oc1ccccc1)C(Cl)(Cl)Cl
dose: 50.0 mg/kg/injection, schedule: Q01DX009 (ip), vehicle: acetone
  survivor count: 6 of 6
dose: 100.0 mg/kg/injection, schedule: Q01DX009 (ip), vehicle: acetone
  survivor count: 6 of 6
dose: 200.0 mg/kg/injection, schedule: Q01DX009 (ip), vehicle: acetone
  survivor count: 3 of 6
dose: 400.0 mg/kg/injection, schedule: Q04DX003 (ip), vehicle: acetone
  survivor count: 4 of 6

## C/C(CCl)=N\Nc1ccc([N+](=O)[O-])cc1[N+](=O)[O-]
dose: 400.0 mg/kg/injection, schedule: Q01DX001 (ip), vehicle: saline with Tween-80
  survivor count: 1 of 6

## CCN1C(=O)CC(=O)N(CC)C1=S
[4]
  survivor count: 2 of 6

## O=C(O)CC(NC(=O)OCc1ccccc1)c1ccc(Cl)cc1 (configuration not stated)
[5]
  survivor count: 0 of 3 and 2 of 6

## CC(=O)N(N=Nc1ccccc1)c1cccc2ccccc12
[6]
  survivor count: 6 of 6

## Cc1ccc(C(C#N)c2ccc(N)cc2)cc1 (configuration not stated)
[7]
  survivor count: 2 of 4

## CC(C)(C)C1CCC(N)CC1 (configuration not stated)
[1]
  survivor count: 0 of 4
[2]
  survivor count: 0 of 4
[3]
  survivor count: 0 of 4

## CC1(C)N=C(N)N=C(N)N1c1cccc(OCCCOc2ccc([N+](=O)[O-])cc2)c1
[8]
  survivor count: 3 of 6
[7]
  survivor count: 0 of 6

## CC(C)(C)c1cccc(Cl)c1O
[9]
  survivor count: 3 of 6
[5]
  survivor count: 0 of 6

## COc1ccccc1C(=O)NC(=S)Nc1ccc(Cl)c(Cl)c1
dose: 100.0 mg/kg/injection, schedule: Q01DX001 (ip), vehicle: Klucel (hydroxypropylcellulose) (HPC)
  survivor count: 6 of 6
[6]
  survivor count: 5 of 6

## COCc1nnc2ncnc(OC)c2n1
[8]
  survivor count: 0 of 6
[7]
  survivor count: 0 of 6

## C[N+](C)(N)Cc1ccc(C[N+](C)(C)N)cc1
dose: 400.0 mg/kg/injection, schedule: Q04DX002 (ip), vehicle: saline
  survivor count: 1 of 3

## CCN(CC)CCNc1ccc(N=Nc2ccc(SC)cc2)c2ccccc12
[9]
  survivor count: 1 of 6

## CC12CCC(O)CC1CCC1C2CCC2(C)C(C3=CC(=O)OC3)CCC12O (configuration not stated)
dose: 100.0 mg/kg/injection, schedule: Q04DX003 (ip), vehicle: Klucel (hydroxypropylcellulose) (HPC)
  survivor count: 0 of 3
dose: 200.0 mg/kg/injection, schedule: Q04DX003 (ip), vehicle: Klucel (hydroxypropylcellulose) (HPC)
  survivor count: 0 of 3
[4]
  survivor count: 0 of 3

## N=C(N)c1ccc(C(=O)Oc2ccc([N+](=O)[O-])cc2)cc1
dose: 100.0 mg/kg/injection, schedule: Q01DX009 (ip), vehicle: saline with Tween-80
  survivor count: 6 of 6
dose: 200.0 mg/kg/injection, schedule: Q04DX003 (ip), vehicle: saline with Tween-80
  survivor count: 2 of 6
dose: 400.0 mg/kg/injection, schedule: Q04DX003 (ip), vehicle: saline with Tween-80
  survivor count: 1 of 6

## Cc1cc([N+](=O)[O-])c(C)cc1O
dose: 300.0 mg/kg/injection, schedule: Q01DX001 (ip), vehicle: saline
  survivor count: 0 of 6

## CC(=O)Nc1ccc(OC(=O)Nc2ccccc2Cl)cc1
[10]
  survivor count: 2 of 6

## O=C1C2C(C(=O)N1c1cccc3ccccc13)C1(Cl)C(Cl)=C(Cl)C2(Cl)C1(Cl)Cl (configuration not stated)
dose: 100.0 mg/kg/injection, schedule: Q01DX009 (ip), vehicle: Klucel (hydroxypropylcellulose) (HPC)
  survivor count: 3 of 6
[10]
  survivor count: 1 of 6
[6]
  survivor count: 0 of 6

## Cc1nc(CON)cs1
dose: 100.0 mg/kg/injection, schedule: Q01DX009 (ip), vehicle: saline
  survivor count: 5 of 6
dose: 400.0 mg/kg/injection, schedule: Q04DX003 (ip), vehicle: saline
  survivor count: 6 of 6

## CSc1ncnc(C)c1N
dose: 125.0 mg/kg/injection, schedule: Q01DX Z (ip), vehicle: saline
  survivor count: 0 of 6

## CCN(CC)Cc1cc(Cl)cc(Cc2cc(Cl)cc(CN(CC)CC)c2O)c1O
dose: 100.0 mg/kg/injection, schedule: Q04DX003 (ip), vehicle: acetone
  survivor count: 4 of 6
